Literature values in patent US7244723B2, “Substituted furopyrimidinones as a mitotic kinesin inhibitors” (Merck & Co., Inc., priority 2001, dated 2007).
Structures can show the parent of a compound that is named as a salt. At least one structure is not confirmed: it was looked up by name or label, or the drawing left a doubt.

System: retinal neovascularization
Conditions: mice; Arch. Ophthalmol. 2001; 119:709-717

| SMILES | development of retinal neovascularization |
| --- | --- |
| CN(CCOc1ccc(CC2SC(=O)NC2=O)cc1)c1ccccn1 (centres unmarked) [rosiglitazone maleate] | inhibit the development of retinal neovascularization |
| Cc1c(C)c2c(c(C)c1O)CCC(C)(COc1ccc(CC3SC(=O)NC3=O)cc1)O2 (centres unmarked) [troglitazone] | inhibit the development of retinal neovascularization |
